The other results are listed elsewhere or left out.
Key:
Assay in all cases: log2 fold change, soluble protein after heating vs DMSO (PISA); higher = thermal stabilisation; K562 lysate, 10 uM; active = over 0.2 and 3.5 SD of the protein, either way, in both replicates (recomputed)
[1] = compound: CN1CC[C@H](c2c(O)cc(O)c3c(=O)cc(-c4ccccc4Cl)oc23)[C@H](O)C1 [alvocidib]
Procedure, shortened: (§1)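 Log-two fold change in thermal stability relative to solvent controls is reported from duplicates. For each sample, crude K562 extract from dounce-homogenised pellets in PBS pH 7.4 with 1 mM MgCl2, at 1 mg/mL protein, was treated with 10 μM compound for 30 min. Aliquots heated for 3 min across 48°C-58°C were pooled, brought to 0.5% NP-40 at 4°C and cleared at 21,000xg for 90 min. The supernatant was quantified by TMTpro 16plex LC-MS/MS with channel sums equalised.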

Chains of the proteins cited; added tags and fusions are not shown. Lines headed by an entry give the natural chain unless they say otherwise; changes in a name come on top.
UniProt Q2TBE0: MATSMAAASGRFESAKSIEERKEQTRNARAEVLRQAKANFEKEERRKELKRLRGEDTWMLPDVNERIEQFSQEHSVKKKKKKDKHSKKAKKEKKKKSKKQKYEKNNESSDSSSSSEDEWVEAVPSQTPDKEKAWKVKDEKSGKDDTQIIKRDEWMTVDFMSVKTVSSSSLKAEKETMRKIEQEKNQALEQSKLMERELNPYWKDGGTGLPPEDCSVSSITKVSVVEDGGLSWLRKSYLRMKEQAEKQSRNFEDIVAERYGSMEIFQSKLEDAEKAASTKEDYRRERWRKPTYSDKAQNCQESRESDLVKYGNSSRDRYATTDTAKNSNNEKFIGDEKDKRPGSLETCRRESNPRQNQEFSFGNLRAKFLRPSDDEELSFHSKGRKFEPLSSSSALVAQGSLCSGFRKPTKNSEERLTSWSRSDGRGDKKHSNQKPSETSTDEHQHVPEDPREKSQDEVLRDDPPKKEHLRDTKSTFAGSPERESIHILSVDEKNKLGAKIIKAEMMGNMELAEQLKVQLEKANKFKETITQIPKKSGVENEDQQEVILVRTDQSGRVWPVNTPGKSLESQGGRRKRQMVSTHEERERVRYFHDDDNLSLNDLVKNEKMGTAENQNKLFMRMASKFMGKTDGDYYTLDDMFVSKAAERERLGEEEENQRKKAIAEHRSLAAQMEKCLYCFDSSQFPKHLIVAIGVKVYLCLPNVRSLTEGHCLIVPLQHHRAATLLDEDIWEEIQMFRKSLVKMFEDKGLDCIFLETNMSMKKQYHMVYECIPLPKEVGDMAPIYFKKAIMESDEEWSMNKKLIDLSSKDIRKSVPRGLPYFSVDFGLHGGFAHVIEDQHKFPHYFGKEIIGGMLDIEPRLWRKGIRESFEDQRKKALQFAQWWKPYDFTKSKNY
UniProt O60716: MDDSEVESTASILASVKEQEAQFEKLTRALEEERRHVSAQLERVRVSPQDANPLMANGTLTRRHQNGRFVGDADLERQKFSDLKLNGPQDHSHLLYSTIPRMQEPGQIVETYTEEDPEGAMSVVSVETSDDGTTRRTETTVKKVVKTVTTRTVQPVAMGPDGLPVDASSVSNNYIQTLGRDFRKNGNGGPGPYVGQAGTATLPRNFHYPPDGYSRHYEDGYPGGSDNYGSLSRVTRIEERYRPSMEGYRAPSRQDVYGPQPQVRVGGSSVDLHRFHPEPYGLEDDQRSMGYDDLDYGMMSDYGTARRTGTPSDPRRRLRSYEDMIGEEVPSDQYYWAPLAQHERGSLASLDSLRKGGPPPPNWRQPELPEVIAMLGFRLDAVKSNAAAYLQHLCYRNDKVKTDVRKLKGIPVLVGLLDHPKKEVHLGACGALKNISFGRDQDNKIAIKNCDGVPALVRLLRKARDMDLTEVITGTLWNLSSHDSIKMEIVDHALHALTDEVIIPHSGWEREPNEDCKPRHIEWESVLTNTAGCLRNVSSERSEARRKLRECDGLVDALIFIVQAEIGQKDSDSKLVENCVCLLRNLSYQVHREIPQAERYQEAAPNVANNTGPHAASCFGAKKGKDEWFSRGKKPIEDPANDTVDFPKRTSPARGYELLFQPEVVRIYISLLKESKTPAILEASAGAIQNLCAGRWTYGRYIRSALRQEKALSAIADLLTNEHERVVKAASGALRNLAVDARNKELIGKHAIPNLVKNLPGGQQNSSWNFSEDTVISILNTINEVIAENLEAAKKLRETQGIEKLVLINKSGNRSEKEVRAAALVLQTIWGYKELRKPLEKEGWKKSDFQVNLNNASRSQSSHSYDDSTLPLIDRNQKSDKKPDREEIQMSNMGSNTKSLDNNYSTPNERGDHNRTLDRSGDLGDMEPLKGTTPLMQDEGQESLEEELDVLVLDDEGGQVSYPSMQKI
UniProt P99999: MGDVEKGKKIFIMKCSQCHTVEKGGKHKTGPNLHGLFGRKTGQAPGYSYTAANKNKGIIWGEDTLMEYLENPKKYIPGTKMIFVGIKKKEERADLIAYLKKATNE
UniProt Q96HD1: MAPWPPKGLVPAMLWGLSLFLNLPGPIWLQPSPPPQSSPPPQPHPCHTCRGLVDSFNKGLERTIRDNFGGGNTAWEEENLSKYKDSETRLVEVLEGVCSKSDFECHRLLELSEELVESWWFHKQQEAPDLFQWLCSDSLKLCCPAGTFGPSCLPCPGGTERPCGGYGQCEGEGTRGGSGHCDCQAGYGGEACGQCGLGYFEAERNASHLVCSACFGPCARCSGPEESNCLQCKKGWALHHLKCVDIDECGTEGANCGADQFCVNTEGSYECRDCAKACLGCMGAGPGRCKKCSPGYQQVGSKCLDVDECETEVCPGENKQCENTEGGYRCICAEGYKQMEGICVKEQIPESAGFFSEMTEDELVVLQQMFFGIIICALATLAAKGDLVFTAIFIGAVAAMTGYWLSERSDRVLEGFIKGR
UniProt Q69YN2: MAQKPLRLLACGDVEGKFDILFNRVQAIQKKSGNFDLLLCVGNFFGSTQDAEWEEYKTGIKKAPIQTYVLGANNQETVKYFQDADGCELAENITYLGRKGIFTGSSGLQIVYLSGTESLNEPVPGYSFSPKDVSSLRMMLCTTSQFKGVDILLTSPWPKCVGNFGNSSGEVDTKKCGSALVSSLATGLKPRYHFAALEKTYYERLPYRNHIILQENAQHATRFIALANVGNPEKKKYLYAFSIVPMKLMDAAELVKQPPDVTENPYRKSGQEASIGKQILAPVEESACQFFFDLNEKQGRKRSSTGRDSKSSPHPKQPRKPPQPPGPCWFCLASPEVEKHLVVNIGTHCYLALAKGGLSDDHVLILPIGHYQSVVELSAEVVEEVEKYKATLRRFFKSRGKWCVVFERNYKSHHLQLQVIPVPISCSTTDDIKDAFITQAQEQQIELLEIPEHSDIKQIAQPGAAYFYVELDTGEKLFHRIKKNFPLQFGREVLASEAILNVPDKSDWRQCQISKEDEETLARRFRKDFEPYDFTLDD
UniProt Q14999: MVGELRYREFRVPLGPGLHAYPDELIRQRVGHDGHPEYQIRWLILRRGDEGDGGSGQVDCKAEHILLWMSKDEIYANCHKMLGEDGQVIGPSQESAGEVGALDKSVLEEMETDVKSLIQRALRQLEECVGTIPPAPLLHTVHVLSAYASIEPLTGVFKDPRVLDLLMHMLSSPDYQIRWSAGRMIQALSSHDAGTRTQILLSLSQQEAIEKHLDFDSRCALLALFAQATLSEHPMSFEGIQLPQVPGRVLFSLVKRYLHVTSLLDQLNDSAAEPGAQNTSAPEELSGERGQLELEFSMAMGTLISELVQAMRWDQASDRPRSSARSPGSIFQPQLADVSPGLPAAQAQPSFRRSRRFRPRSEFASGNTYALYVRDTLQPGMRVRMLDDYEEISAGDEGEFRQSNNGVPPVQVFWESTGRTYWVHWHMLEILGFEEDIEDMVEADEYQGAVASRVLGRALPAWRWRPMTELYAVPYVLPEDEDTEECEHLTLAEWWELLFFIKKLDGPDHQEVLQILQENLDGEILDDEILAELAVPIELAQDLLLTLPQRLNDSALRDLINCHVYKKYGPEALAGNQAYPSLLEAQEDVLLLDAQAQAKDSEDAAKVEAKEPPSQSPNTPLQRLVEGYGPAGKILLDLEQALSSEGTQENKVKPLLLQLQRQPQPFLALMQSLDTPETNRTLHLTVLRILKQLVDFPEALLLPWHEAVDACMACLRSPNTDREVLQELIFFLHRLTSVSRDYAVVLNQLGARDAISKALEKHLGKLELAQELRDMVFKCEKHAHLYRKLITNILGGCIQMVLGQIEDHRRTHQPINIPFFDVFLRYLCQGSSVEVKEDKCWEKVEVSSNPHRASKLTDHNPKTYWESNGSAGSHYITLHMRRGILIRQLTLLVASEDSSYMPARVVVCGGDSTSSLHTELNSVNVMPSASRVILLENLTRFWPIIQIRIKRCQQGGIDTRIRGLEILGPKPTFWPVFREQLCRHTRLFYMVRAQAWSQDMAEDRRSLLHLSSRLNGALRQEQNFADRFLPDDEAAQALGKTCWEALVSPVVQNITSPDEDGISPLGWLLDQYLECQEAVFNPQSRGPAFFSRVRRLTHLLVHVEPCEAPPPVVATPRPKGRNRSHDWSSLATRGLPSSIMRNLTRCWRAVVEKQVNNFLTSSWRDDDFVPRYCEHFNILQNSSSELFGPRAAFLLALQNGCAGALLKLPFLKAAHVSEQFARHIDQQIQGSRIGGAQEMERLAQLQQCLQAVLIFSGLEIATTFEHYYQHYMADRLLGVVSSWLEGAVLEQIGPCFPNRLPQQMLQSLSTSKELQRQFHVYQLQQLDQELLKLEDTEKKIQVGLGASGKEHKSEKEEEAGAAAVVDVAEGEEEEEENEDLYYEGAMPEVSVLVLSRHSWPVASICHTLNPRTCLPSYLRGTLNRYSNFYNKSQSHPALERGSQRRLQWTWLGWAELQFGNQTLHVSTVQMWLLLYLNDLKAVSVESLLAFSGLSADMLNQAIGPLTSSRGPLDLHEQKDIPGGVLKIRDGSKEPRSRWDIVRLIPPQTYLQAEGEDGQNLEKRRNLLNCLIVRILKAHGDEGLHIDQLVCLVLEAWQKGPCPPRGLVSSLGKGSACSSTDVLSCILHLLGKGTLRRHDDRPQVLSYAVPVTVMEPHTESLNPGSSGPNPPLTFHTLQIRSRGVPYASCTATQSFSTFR
UniProt Q53ET0: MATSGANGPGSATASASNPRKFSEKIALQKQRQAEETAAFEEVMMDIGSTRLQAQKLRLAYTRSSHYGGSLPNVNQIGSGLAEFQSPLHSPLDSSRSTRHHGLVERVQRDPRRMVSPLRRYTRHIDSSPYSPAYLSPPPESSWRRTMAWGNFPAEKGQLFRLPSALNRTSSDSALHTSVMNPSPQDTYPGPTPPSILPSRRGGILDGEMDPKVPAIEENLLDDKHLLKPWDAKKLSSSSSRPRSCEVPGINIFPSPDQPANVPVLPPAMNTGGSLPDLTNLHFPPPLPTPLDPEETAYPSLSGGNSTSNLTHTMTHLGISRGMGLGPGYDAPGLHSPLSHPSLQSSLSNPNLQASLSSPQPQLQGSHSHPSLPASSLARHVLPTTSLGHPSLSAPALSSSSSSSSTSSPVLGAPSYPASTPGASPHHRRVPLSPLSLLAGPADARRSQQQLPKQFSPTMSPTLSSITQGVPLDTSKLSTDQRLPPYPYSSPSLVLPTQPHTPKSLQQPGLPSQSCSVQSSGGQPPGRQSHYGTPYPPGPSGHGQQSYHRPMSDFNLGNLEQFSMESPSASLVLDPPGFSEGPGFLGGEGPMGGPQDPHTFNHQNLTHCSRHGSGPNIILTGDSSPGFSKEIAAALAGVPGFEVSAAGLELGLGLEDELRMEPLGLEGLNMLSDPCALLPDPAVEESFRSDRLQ
UniProt P46109: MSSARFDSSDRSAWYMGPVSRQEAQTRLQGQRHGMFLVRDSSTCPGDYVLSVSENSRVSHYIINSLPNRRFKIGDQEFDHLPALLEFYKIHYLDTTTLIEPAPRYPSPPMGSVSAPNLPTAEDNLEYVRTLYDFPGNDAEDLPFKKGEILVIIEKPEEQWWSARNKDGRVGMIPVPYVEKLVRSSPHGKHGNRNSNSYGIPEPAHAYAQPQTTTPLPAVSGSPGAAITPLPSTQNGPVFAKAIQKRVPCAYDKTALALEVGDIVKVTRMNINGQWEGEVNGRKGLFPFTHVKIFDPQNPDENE
UniProt Q9UBR2: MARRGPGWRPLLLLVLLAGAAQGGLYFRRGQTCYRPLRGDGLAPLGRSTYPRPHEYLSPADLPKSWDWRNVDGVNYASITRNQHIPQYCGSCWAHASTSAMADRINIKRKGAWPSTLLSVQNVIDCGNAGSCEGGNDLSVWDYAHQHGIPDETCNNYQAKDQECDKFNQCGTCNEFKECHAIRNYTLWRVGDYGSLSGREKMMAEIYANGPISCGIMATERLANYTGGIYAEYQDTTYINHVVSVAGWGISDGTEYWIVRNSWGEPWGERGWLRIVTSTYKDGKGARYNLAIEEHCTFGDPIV
UniProt Q9UHQ9: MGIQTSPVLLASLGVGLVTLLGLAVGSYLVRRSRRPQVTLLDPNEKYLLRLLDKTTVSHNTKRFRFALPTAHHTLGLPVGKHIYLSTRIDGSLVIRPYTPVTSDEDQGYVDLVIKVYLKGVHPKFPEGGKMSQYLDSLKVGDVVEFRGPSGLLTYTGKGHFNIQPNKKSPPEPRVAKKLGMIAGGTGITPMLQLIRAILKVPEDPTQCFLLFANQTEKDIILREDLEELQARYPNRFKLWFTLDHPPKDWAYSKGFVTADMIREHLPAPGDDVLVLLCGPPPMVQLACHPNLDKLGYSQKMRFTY
UniProt Q9NTM9: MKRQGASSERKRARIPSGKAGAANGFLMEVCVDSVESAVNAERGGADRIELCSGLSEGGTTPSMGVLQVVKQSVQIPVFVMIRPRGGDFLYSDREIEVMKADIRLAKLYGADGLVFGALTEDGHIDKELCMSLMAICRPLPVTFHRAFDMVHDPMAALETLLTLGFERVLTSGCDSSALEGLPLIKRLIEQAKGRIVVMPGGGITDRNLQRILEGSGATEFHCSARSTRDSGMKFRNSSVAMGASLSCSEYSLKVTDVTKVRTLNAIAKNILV

[2] = compound: CN1CCc2c(c3ccccc3n2Cc2ccc(C(=O)NO)cc2)C1 [Tubastatin A]
Procedure, shortened: as §1

[3] = compound: CNC(=O)C1=CC=CC=C1NC2=NC(=NC=C2Cl)NC3=C(C=C(C=C3)N4CCOCC4)OC
Procedure, shortened: as §1

[4] = compound: CNC(=O)c1ccc(Nc2ncc(C(F)(F)F)c(NCc3nccnc3N(C)S(C)(=O)=O)n2)cc1 [defactinib]
Procedure, shortened: as §1

[5] = compound: CNc1nc(-c2ccc3c(N)n[nH]c3c2)cc(N2C[C@@H](C(=O)NC3CCCCC3)CC[C@H]2C)n1
Procedure, shortened: as §1

[6] = compound: COC(=O)N[C@@H](C)CNc1nccc(-c2cn(C(C)C)nc2-c2cc(Cl)cc(NS(C)(=O)=O)c2F)n1 [encorafenib]
Procedure, shortened: as §1

[7] = compound: COC(=O)[C@H](CCSC)NC(=O)C1=C(C=C(C=C1)NC[C@H](CS)N)C2=CC=CC=C2
Procedure, shortened: as §1

[8] = compound: COc1cc(Nc2ncc3c(n2)-c2ccc(Cl)cc2C(c2c(F)cccc2OC)=NC3)ccc1C(=O)O [alisertib]
Procedure, shortened: as §1

[9] = compound: COc1cc2nc(-c3cc(F)ccc3O)nc(N[C@@H]3CNC[C@H]3C(C)(C)O)c2cc1OC
Procedure, shortened: as §1

[10] = compound: COc1cc2ncnc(Nc3ccc(F)c(Cl)c3)c2cc1OCCCN1CCOCC1 [gefitinib]
Procedure, shortened: as §1

Target | log2 fold change [1] | log2 fold change [2] | log2 fold change [3] | log2 fold change [4] | log2 fold change [5] | log2 fold change [6] | log2 fold change [7] | log2 fold change [8] | log2 fold change [9] | log2 fold change [10]
CTBS (UniProt Q01459) | inactive: -0.015 | inactive: 0.048 | inactive: -0.001 | inactive: -0.01 | inactive: -0.012 | inactive: 0.017 | inactive: 0.003 | inactive: -0.024 | inactive: 0.041 | inactive: 0.003
CYB5B (UniProt O43169) | inactive: 0.04 | inactive: 0.092 | inactive: 0.047 | inactive: 0.032 | inactive: 0.129 | inactive: 0.038 | inactive: 0.012 | inactive: 0.048 | inactive: -0.005 | inactive: -0.102
CWF19L2 (UniProt Q2TBE0) | inactive: -0.014 | inactive: -0.039 | inactive: 0.057 | inactive: 0.01 | inactive: 0 | inactive: 0.06 | inactive: -0.021 | inactive: -0.014 | inactive: -0.177 | inactive: 0.041
CTNND1 isoform 3 (UniProt O60716) | inactive: -0.02 | inactive: -0.159 | inactive: 0.019 | inactive: 0.045 | inactive: -0.04 | inactive: 0.013 | inactive: 0.174 | inactive: 0.026 | inactive: 0.006 | inactive: -0.023
CYCS (UniProt P99999) | inactive: -0.003 | inactive: 0.027 | inactive: 0.009 | inactive: 0.04 | inactive: 0.018 | inactive: -0.004 | inactive: -0.04 | inactive: -0.019 | inactive: -0.002 | inactive: 0.003
CSK (UniProt P41240) | inactive: 0.076 | inactive: -0.088 | inactive: 0.262 | inactive: 0.068 | inactive: -0.027 | inactive: -0.026 | inactive: -0.063 | inactive: 0.072 | inactive: -0.008 | inactive: -0.01
CRBN (UniProt Q96SW2) | inactive: -0.035 | inactive: -0.003 | inactive: -0.041 | inactive: -0.039 | inactive: 0.011 | inactive: -0.021 | inactive: -0.02 | inactive: 0.012 | inactive: 0.018 | inactive: 0.018
CRELD1 isoform 2 (UniProt Q96HD1) | inactive: -0.012 | inactive: 0.005 | inactive: 0 | inactive: 0.052 | inactive: 0.027 | inactive: 0.016 | inactive: -0.035 | inactive: 0.037 | inactive: 0.023 | inactive: 0.193
CT47A1 (UniProt Q5JQC4) | inactive: -0.087 | inactive: 0.032 | inactive: 0.008 | inactive: 0.021 | inactive: -0.013 | inactive: -0.061 | inactive: 0.067 | inactive: 0.03 | inactive: 0.001 | inactive: -0.015
CTH (UniProt P32929) | inactive: -0.002 | inactive: 0.037 | inactive: -0.009 | inactive: -0.022 | inactive: 0.019 | inactive: -0.029 | inactive: 0.001 | inactive: -0.021 | inactive: 0.012 | inactive: -0.012
CRLF3 (UniProt Q8IUI8) | inactive: -0.02 | inactive: -0.036 | inactive: 0.007 | inactive: -0.019 | inactive: 0.018 | inactive: -0.01 | inactive: 0.166 | inactive: 0.01 | inactive: 0.02 | inactive: -0.005
CWF19L1 (UniProt Q69YN2) | inactive: 0.021 | inactive: -0.039 | inactive: 0.013 | inactive: 0.01 | inactive: 0 | inactive: 0.014 | inactive: 0.013 | inactive: 0.007 | inactive: -0.017 | inactive: -0.004
CUL7 isoform 2 (UniProt Q14999) | inactive: 0.078 | inactive: 0 | inactive: -0.046 | inactive: -0.053 | inactive: -0.04 | inactive: 0.028 | inactive: 0.157 | inactive: -0.009 | inactive: -0.054 | inactive: -0.194
CTR9 (UniProt Q6PD62) | inactive: -0.023 | inactive: -0.008 | inactive: 0.043 | inactive: 0.015 | inactive: -0.039 | inactive: 0.001 | inactive: 0.099 | inactive: -0.001 | inactive: 0.014 | inactive: 0.012
CTNNBL1 (UniProt Q8WYA6) | inactive: 0.027 | inactive: 0.148 | inactive: -0.004 | inactive: -0.015 | active: 0.417 | inactive: 0.023 | inactive: 0.101 | inactive: -0.013 | inactive: -0.027 | inactive: 0.022
CTTN isoform 2 (UniProt Q14247) | inactive: 0.011 | inactive: 0.059 | inactive: 0 | inactive: -0.008 | inactive: 0.053 | inactive: -0.018 | inactive: 0.01 | inactive: 0.012 | inactive: 0.01 | inactive: 0.016
CRTAP (UniProt O75718) | inactive: 0.034 | inactive: -0.077 | inactive: 0.017 | inactive: 0.011 | inactive: -0.087 | inactive: 0.006 | inactive: 0.006 | inactive: -0.009 | inactive: 0.006 | inactive: 0.028
CREG1 (UniProt O75629) | inactive: 0.058 | inactive: 0.042 | inactive: 0.041 | inactive: 0.029 | inactive: 0.034 | inactive: -0.003 | inactive: -0.01 | inactive: -0.017 | inactive: -0.024 | inactive: -0.054
CRTC2 (UniProt Q53ET0) | inactive: 0.041 | inactive: -0.041 | inactive: 0.049 | inactive: -0.107 | inactive: 0.019 | inactive: 0.07 | inactive: 0.012 | inactive: 0.065 | inactive: -0.023 | inactive: -0.008
CUL4B (UniProt Q13620) | inactive: -0.035 | inactive: 0.005 | inactive: -0.002 | inactive: -0.001 | inactive: 0.019 | inactive: 0.002 | inactive: -0.003 | inactive: 0.003 | inactive: 0.013 | inactive: 0.024
CRKL (UniProt P46109) | inactive: -0.016 | inactive: 0.041 | inactive: 0.005 | inactive: -0.004 | inactive: 0.039 | inactive: -0.002 | inactive: -0.071 | inactive: 0.006 | inactive: 0.017 | inactive: -0.004
CTDP1 (UniProt Q9Y5B0) | inactive: -0.022 | inactive: -0.049 | inactive: 0.068 | inactive: -0.016 | inactive: 0.025 | inactive: 0.006 | inactive: 0.069 | inactive: -0.054 | inactive: 0.028 | inactive: 0.019
CTSZ (UniProt Q9UBR2) | inactive: -0.034 | inactive: 0.024 | inactive: 0.005 | inactive: -0.027 | inactive: -0.037 | inactive: -0.016 | inactive: -0.065 | inactive: 0 | inactive: 0.005 | inactive: 0.015
CYB5R1 (UniProt Q9UHQ9) | inactive: 0.041 | inactive: 0.062 | inactive: -0.043 | inactive: 0.021 | inactive: -0.035 | inactive: -0.022 | inactive: 0.149 | inactive: -0.018 | inactive: 0.137 | inactive: 0.061
CUTC (UniProt Q9NTM9) | inactive: -0.012 | inactive: 0.124 | inactive: 0.012 | inactive: 0.016 | inactive: 0.053 | inactive: -0.019 | inactive: 0.124 | inactive: 0.032 | inactive: 0.003 | inactive: -0.038
CSNK1G3 (UniProt Q9Y6M4) | inactive: 0.032 | inactive: 0.064 | inactive: 0.014 | inactive: 0.069 | inactive: 0.03 | inactive: 0.018 | inactive: -0.033 | inactive: -0.005 | active: 0.459 | inactive: -0.005

Rewritten tab-delimited: entries from further up
Target	log2 fold change [1]	log2 fold change [2]	log2 fold change [3]	log2 fold change [4]	log2 fold change [5]	log2 fold change [6]	log2 fold change [7]	log2 fold change [8]	log2 fold change [9]	log2 fold change [10]
CRKL (UniProt P46109)	inactive: -0.016	inactive: 0.041	inactive: 0.005	inactive: -0.004	inactive: 0.039	inactive: -0.002	inactive: -0.071	inactive: 0.006	inactive: 0.017	inactive: -0.004
CTDP1 (UniProt Q9Y5B0)	inactive: -0.022	inactive: -0.049	inactive: 0.068	inactive: -0.016	inactive: 0.025	inactive: 0.006	inactive: 0.069	inactive: -0.054	inactive: 0.028	inactive: 0.019
CTSZ (UniProt Q9UBR2)	inactive: -0.034	inactive: 0.024	inactive: 0.005	inactive: -0.027	inactive: -0.037	inactive: -0.016	inactive: -0.065	inactive: 0	inactive: 0.005	inactive: 0.015
CYB5R1 (UniProt Q9UHQ9)	inactive: 0.041	inactive: 0.062	inactive: -0.043	inactive: 0.021	inactive: -0.035	inactive: -0.022	inactive: 0.149	inactive: -0.018	inactive: 0.137	inactive: 0.061
